According to the supplement of paper PMC3682954:
“And” between values parts separate entries of the source, which are not always exact repeats. Equal entries are not always repeated. Structures can show the parent of a compound that is named as a salt. ± gives the standard deviation of the averaged measurements. The list shows a part of the results. Single values are uncertain, as repeats are few or missing.

System: RAW 264.7
Assay: HMGB1-induced TNF-alpha production relative to HMGB1-stimulated control; higher = more TNF-alpha secretion (less inhibition)
Details: stimulus: HMGB1 5 ug/ml, 18 h
[1] = compound concentration: 1 ug/ml

SMILES: CCc1cccc2c3c([nH]c12)C(CC)(CC(=O)O)OCC3 (stereo not drawn) [Etodolac]
- HMGB1-induced TNF-alpha production (compound concentration: 3 uM): 102 ± 4%

SMILES: CCc1cccc2c3c([nH]c12)C(CC)(CC(=O)O)OCC3 (stereo not drawn)
- HMGB1-induced TNF-alpha production (compound concentration: 3 uM): 98.2%

SMILES: Cc1noc(NS(=O)(=O)c2ccc(N)cc2)c1C
- HMGB1-induced TNF-alpha production (compound concentration: 3 uM): 52%

SMILES: Cc1noc(NS(=O)(=O)c2ccc(N)cc2)c1C [Sulfisoxazole]
- HMGB1-induced TNF-alpha production (compound concentration: 3 uM): 63.7%

SMILES: CC[N+](CC)(CC)CCC(O)(c1ccccc1)C1CCCCC1 (stereo not drawn) [Tridihexethyl chloride]
- HMGB1-induced TNF-alpha production (compound concentration: 3 uM): 153%

SMILES: O=C1NCC=C2c3cccc(Cl)c3NC12 (stereo not drawn) [8-Chlro-1-tetrahydronorharmanone]
- HMGB1-induced TNF-alpha production [1]: 94%

SMILES: OCCOCCN1CCN(C(c2ccccc2)c2ccc(Cl)cc2)CC1 (stereo not drawn)
- HMGB1-induced TNF-alpha production (compound concentration: 3 uM): 99%

SMILES: OCCOCCN1CCN(C(c2ccccc2)c2ccc(Cl)cc2)CC1 (stereo not drawn) [Hydroxyzine dihydrochloride]
- HMGB1-induced TNF-alpha production (compound concentration: 3 uM): 77.4%

SMILES: C=CC1=C(C(=O)O)N2C(=O)[C@@H](NC(=O)/C(=N\OCC(=O)O)c3csc(N)n3)[C@H]2SC1 [Cefixime]
- HMGB1-induced TNF-alpha production (compound concentration: 3 uM): 78.1%

SMILES: C=CC1=C(C(=O)O)N2C(=O)[C@@H](NC(=O)/C(=N\OCC(=O)O)c3csc(N)n3)[C@H]2SC1
- HMGB1-induced TNF-alpha production (compound concentration: 3 uM): 83.9%

SMILES: Cc1cc(-n2c(=O)[nH]c(=O)n(C)c2=O)ccc1Oc1ccc(SC(F)(F)F)cc1
- HMGB1-induced TNF-alpha production (compound concentration: 3 uM): 93.8%

SMILES: Cc1cc(-n2c(=O)[nH]c(=O)n(C)c2=O)ccc1Oc1ccc(SC(F)(F)F)cc1 [Toltrazuril]
- HMGB1-induced TNF-alpha production (compound concentration: 3 uM): 103 ± 36%

SMILES: CCCn1c(=O)c2[nH]c(-c3ccc(S(=O)(=O)O)cc3)nc2n(CCC)c1=O [1,3-Dipropyl-8-p-sulfophenylxanthine]
- HMGB1-induced TNF-alpha production (compound concentration: 3 uM): 96.5%

SMILES: Cc1ccccc1N1C(=O)c2cc(S(N)(=O)=O)c(Cl)cc2NC1C (stereo not drawn) [Metolazone]
- HMGB1-induced TNF-alpha production (compound concentration: 3 uM): 87.8 ± 20%

SMILES: Cc1ccccc1N1C(=O)c2cc(S(N)(=O)=O)c(Cl)cc2NC1C (stereo not drawn)
- HMGB1-induced TNF-alpha production (compound concentration: 3 uM): 93.4%

SMILES: CC(=O)Nc1nc2nc[nH]c2c(=O)[nH]1 [N-2-Acetylguanine]
- HMGB1-induced TNF-alpha production [1]: 75.2%

SMILES: CN(C)CCC(c1ccc(Br)cc1)c1ccccn1 (racemic) [(±)-Brompheniramine maleate]
- HMGB1-induced TNF-alpha production (compound concentration: 3 uM): 93.8%

SMILES: O=C1N(c2ccccc2)c2ccccc2C1(Cc1ccncc1)Cc1ccncc1 [Linopirdine]
- HMGB1-induced TNF-alpha production (compound concentration: 3 uM): 106%

SMILES: O=C1N(c2ccccc2)c2ccccc2C1(Cc1ccncc1)Cc1ccncc1
- HMGB1-induced TNF-alpha production (compound concentration: 3 uM): 70.4%

SMILES: COc1ccc2[nH]c([S+]([O-])Cc3ncc(C)c(OC)c3C)nc2c1 (stereo not drawn) [Omeprazole]
- HMGB1-induced TNF-alpha production (compound concentration: 3 uM): 74.3 ± 12%

SMILES: COc1ccc2[nH]c([S+]([O-])Cc3ncc(C)c(OC)c3C)nc2c1 (stereo not drawn)
- HMGB1-induced TNF-alpha production (compound concentration: 3 uM): 91.3% and 99.6%

SMILES: COc1cccc(C(=O)NNC2OC(CO)C(O)C2O)c1 (stereo not drawn)
- HMGB1-induced TNF-alpha production [1]: 68.5%

SMILES: CC(=O)Oc1ccc(-c2coc3cc(OC4OC(COC5OCC(OC(C)=O)C(OC(C)=O)C5OC(C)=O)C(OC(C)=O)C(OC(C)=O)C4OC(C)=O)cc(OC(C)=O)c3c2=O)cc1 (stereo not drawn) [Genistein -7-O-Glc-Xyl, Acetate]
- HMGB1-induced TNF-alpha production [1]: 83.2%
